The supplement of paper PMC8728848
The list shows a part of the results.

How the values were obtained:
Assay in all cases: glycan array binding signal (z-score within array); higher = stronger binding
Settings in all cases: glycan notation: IUPAC condensed, linker removed; mutation: R276L
Neu5Ac(a2-3)Gal = molecular target: Neu5Ac(a2-3)Gal
In short: (§1)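 The Consortium for Functional Glycomics database supplied 3228 glycan arrays, of which those lacking an available protein sequence were dropped. The binding signal, a within-array Z-score, was averaged across arrays of the same protein sequence and across linkers. Negative scores can be read as non-binding.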

[1] = molecular target: Neu5Ac(a2-3)Gal(b1-3)GalNAc
In short: as §1

[2] = molecular target: Neu5Ac(a2-3)Gal(b1-3)GalNAc(b1-3)Gal(a1-4)Gal(b1-4)Glc
In short: as §1

[3] = molecular target: Neu5Ac(a2-3)Gal(b1-3)GalNAc(b1-4)Gal(b1-4)Glc
In short: as §1

[4] = molecular target: Neu5Ac(a2-3)Gal(b1-3)GalNAc(b1-4)[Neu5Ac(a2-3)]Gal(b1-4)Glc
In short: as §1

[5] = molecular target: Neu5Ac(a2-3)Gal(b1-3)GalNAc(b1-4)[Neu5Ac(a2-8)Neu5Ac(a2-3)]Gal(b1-4)Glc
In short: as §1

[6] = molecular target: Neu5Ac(a2-3)Gal(b1-3)GalNAc6S
In short: as §1

[7] = molecular target: Neu5Ac(a2-3)Gal(b1-3)GlcNAc
In short: as §1

[8] = molecular target: Neu5Ac(a2-3)Gal(b1-3)GlcNAc(b1-2)Man
In short: as §1

[9] = molecular target: Neu5Ac(a2-3)Gal(b1-3)GlcNAc(b1-2)Man(a1-3)[GlcNAc(b1-4)][Neu5Ac(a2-3)Gal(b1-3)GlcNAc(b1-2)Man(a1-6)]Man(b1-4)GlcNAc(b1-4)GlcNAc
In short: as §1

[10] = molecular target: Neu5Ac(a2-3)Gal(b1-3)GlcNAc(b1-2)Man(a1-3)[Neu5Ac(a2-3)Gal(b1-3)GlcNAc(b1-2)Man(a1-6)]Man(b1-4)GlcNAc(b1-4)GlcNAc
In short: as §1

[11] = molecular target: Neu5Ac(a2-3)Gal(b1-3)GlcNAc(b1-2)[Neu5Ac(a2-3)Gal(b1-3)GlcNAc(b1-4)]Man(a1-6)[Neu5Ac(a2-3)Gal(b1-3)GlcNAc(b1-2)Man(a1-3)]Man(b1-4)GlcNAc(b1-4)GlcNAc
In short: as §1

[12] = molecular target: Neu5Ac(a2-3)Gal(b1-3)GlcNAc(b1-3)Gal(b1-3)GlcNAc
In short: as §1

[13] = molecular target: Neu5Ac(a2-3)Gal(b1-3)GlcNAc(b1-3)Gal(b1-4)GlcNAc
In short: as §1

[14] = molecular target: Neu5Ac(a2-3)Gal(b1-3)GlcNAc(b1-3)GalNAc
In short: as §1

[15] = molecular target: Neu5Ac(a2-3)Gal(b1-3)GlcNAc(b1-6)GalNAc
In short: as §1

[16] = molecular target: Neu5Ac(a2-3)Gal(b1-3)GlcNAc6S
In short: as §1

[17] = molecular target: Neu5Ac(a2-3)Gal(b1-3)[Fuc(a1-4)]GlcNAc
In short: as §1

[18] = molecular target: Neu5Ac(a2-3)Gal(b1-3)[Fuc(a1-4)]GlcNAc(b1-3)Gal(b1-3)[Fuc(a1-4)]GlcNAc
In short: as §1

[19] = molecular target: Neu5Ac(a2-3)Gal(b1-3)[Fuc(a1-4)]GlcNAc(b1-3)Gal(b1-4)[Fuc(a1-3)]GlcNAc
In short: as §1

[20] = molecular target: Neu5Ac(a2-3)Gal(b1-3)[GlcNAc(b1-6)]GalNAc
In short: as §1

[21] = molecular target: Neu5Ac(a2-3)Gal(b1-3)[Neu5Ac(a2-6)]GalNAc
In short: as §1

[22] = molecular target: Neu5Ac(a2-3)Gal(b1-3)[Neu5Ac(a2-6)]GlcNAc(b1-3)[Fuc(a1-3)[Gal(b1-4)]GlcNAc(b1-6)]Gal(b1-4)Glc
In short: as §1

[23] = molecular target: Neu5Ac(a2-3)Gal(b1-3)]Neu5Ac(a2-3)Gal(b1-4)]GlcNAc
In short: as §1

Neu5Ac(a2-3)Gal(b1-4)Glc = molecular target: Neu5Ac(a2-3)Gal(b1-4)Glc
In short: as §1

[24] = molecular target: Neu5Ac(a2-3)Gal(b1-4)GlcNAc
In short: as §1

[25] = molecular target: Neu5Ac(a2-3)Gal(b1-4)GlcNAc(b1-2)Man
In short: as §1

[26] = molecular target: Neu5Ac(a2-3)Gal(b1-4)GlcNAc(b1-2)Man(a1-3)[GlcNAc(b1-4)][Neu5Ac(a2-3)Gal(b1-4)GlcNAc(b1-2)Man(a1-6)]Man(b1-4)GlcNAc(b1-4)GlcNAc
In short: as §1

[27] = molecular target: Neu5Ac(a2-3)Gal(b1-4)GlcNAc(b1-2)Man(a1-3)[Neu5Ac(a2-3)Gal(b1-4)GlcNAc(b1-2)Man(a1-6)]Man(b1-4)GlcNAc(b1-4)GlcNAc
In short: as §1

[28] = molecular target: Neu5Ac(a2-3)Gal(b1-4)GlcNAc(b1-2)Man(a1-3)[Neu5Ac(a2-3)Gal(b1-4)GlcNAc(b1-2)Man(a1-6)]Man(b1-4)GlcNAc(b1-4)[Fuc(a1-6)]GlcNAc
In short: as §1

[29] = molecular target: Neu5Ac(a2-3)Gal(b1-4)GlcNAc(b1-2)Man(a1-3)[Neu5Ac(a2-6)Gal(b1-4)GlcNAc(b1-2)Man(a1-6)]Man(b1-4)GlcNAc(b1-4)GlcNAc
In short: as §1

[30] = molecular target: Neu5Ac(a2-3)Gal(b1-4)GlcNAc(b1-2)[Neu5Ac(a2-3)Gal(b1-4)GlcNAc(b1-4)]Man(a1-3)[GlcNAc(b1-4)][Neu5Ac(a2-3)Gal(b1-4)GlcNAc(b1-2)[Neu5Ac(a2-3)Gal(b1-4)GlcNAc(b1-6)]Man(a1-6)]Man(b1-4)GlcNAc(b1-4)GlcNAc
In short: as §1

[31] = molecular target: Neu5Ac(a2-3)Gal(b1-4)GlcNAc(b1-2)[Neu5Ac(a2-3)Gal(b1-4)GlcNAc(b1-4)]Man(a1-3)[GlcNAc(b1-4)][Neu5Ac(a2-3)Gal(b1-4)GlcNAc(b1-4)Man(a1-6)]Man(b1-4)GlcNAc(b1-4)GlcNAc
In short: as §1

[32] = molecular target: Neu5Ac(a2-3)Gal(b1-4)GlcNAc(b1-2)[Neu5Ac(a2-3)Gal(b1-4)GlcNAc(b1-6)]Man(a1-6)[Neu5Ac(a2-3)Gal(b1-4)GlcNAc(b1-2)Man(a1-3)][GlcNAc(b1-4)]Man(b1-4)GlcNAc(b1-4)GlcNAc
In short: as §1

[33] = molecular target: Neu5Ac(a2-3)Gal(b1-4)GlcNAc(b1-3)Gal
In short: as §1

[34] = molecular target: Neu5Ac(a2-3)Gal(b1-4)GlcNAc(b1-3)Gal(b1-3)GlcNAc
In short: as §1

[35] = molecular target: Neu5Ac(a2-3)Gal(b1-4)GlcNAc(b1-3)Gal(b1-4)GlcNAc
In short: as §1

[36] = molecular target: Neu5Ac(a2-3)Gal(b1-4)GlcNAc(b1-3)Gal(b1-4)GlcNAc(b1-2)Man(a1-3)[Neu5Ac(a2-3)Gal(b1-4)GlcNAc(b1-3)Gal(b1-4)GlcNAc(b1-2)Man(a1-6)]Man(b1-4)GlcNAc(b1-4)GlcNAc
In short: as §1

[37] = molecular target: Neu5Ac(a2-3)Gal(b1-4)GlcNAc(b1-3)Gal(b1-4)GlcNAc(b1-3)Gal(b1-4)GlcNAc
In short: as §1

[38] = molecular target: Neu5Ac(a2-3)Gal(b1-4)GlcNAc(b1-3)Gal(b1-4)GlcNAc(b1-3)Gal(b1-4)GlcNAc(b1-2)Man(a1-3)[Neu5Ac(a2-3)Gal(b1-4)GlcNAc(b1-3)Gal(b1-4)GlcNAc(b1-3)Gal(b1-4)GlcNAc(b1-2)Man(a1-6)]GalNAc
In short: as §1

[39] = molecular target: Neu5Ac(a2-3)Gal(b1-4)GlcNAc(b1-3)Gal(b1-4)GlcNAc(b1-3)GalNAc
In short: as §1

[40] = molecular target: Neu5Ac(a2-3)Gal(b1-4)GlcNAc(b1-3)Gal(b1-4)GlcNAc(b1-3)[Neu5Ac(a2-3)Gal(b1-4)GlcNAc(b1-3)Gal(b1-4)GlcNAc(b1-6)]GalNAc
In short: as §1

[41] = molecular target: Neu5Ac(a2-3)Gal(b1-4)GlcNAc(b1-3)Gal(b1-4)GlcNAc(b1-6)[Gal(b1-3)]GalNAc
In short: as §1

[42] = molecular target: Neu5Ac(a2-3)Gal(b1-4)GlcNAc(b1-3)Gal(b1-4)[Fuc(a1-3)]GlcNAc
In short: as §1

[43] = molecular target: Neu5Ac(a2-3)Gal(b1-4)GlcNAc(b1-3)GalNAc
In short: as §1

B1: SUN4P (Saccharomyces cerevisiae), P53616 (protein)
chain: MGSSHHHHHHSSGLVPRGSHNGSIYGDLADFSGPYEKFEDGTIPCGQFPSGQGVIPISWLDEGGWSGVENTDTSTGGSCKEGSYCSYACQPGMSKTQWPSDQPSDGRSIGGLLCKDGYLYRSNTDTDYLCEWGVDAAYVVSELSNDVAICLTDYPGTENMVIPTYVQAGDSLPLTVVDQDTYYTWQGLKTSAQYYVNNAGISVEDACVWGSSSSGVGNWAPLNFGAGSSDGVAYLSLIPNPNNGNALNFNVKIVAADDSSTVNGECIYENGSFSGGSDGCTVSVTAGKAKFVLYN
- glycan array binding signal (z-score) (Neu5Ac(a2-3)Gal): 0.2
- glycan array binding signal (z-score) [1]: -0.583
- glycan array binding signal (z-score) [2]: -1.53
- glycan array binding signal (z-score) [3]: 0.344
- glycan array binding signal (z-score) [4]: 0.815
- glycan array binding signal (z-score) [5]: 0.107
- glycan array binding signal (z-score) [6]: -0.503
- glycan array binding signal (z-score) [7]: 0.214
- glycan array binding signal (z-score) [8]: -1.11
- glycan array binding signal (z-score) [9]: -0.361
- glycan array binding signal (z-score) [10]: 0.438
- glycan array binding signal (z-score) [11]: 1.54
- glycan array binding signal (z-score) [12]: 0.735
- glycan array binding signal (z-score) [13]: -0.287
- glycan array binding signal (z-score) [14]: -0.279
- glycan array binding signal (z-score) [15]: -0.635
- glycan array binding signal (z-score) [16]: -0.317
- glycan array binding signal (z-score) [17]: -1.08
- glycan array binding signal (z-score) [18]: -0.862
- glycan array binding signal (z-score) [19]: -0.964
- glycan array binding signal (z-score) [20]: -0.212
- glycan array binding signal (z-score) [21]: -0.468
- glycan array binding signal (z-score) [22]: -0.341
- glycan array binding signal (z-score) [23]: 0.213
- glycan array binding signal (z-score) (Neu5Ac(a2-3)Gal(b1-4)Glc): -1.01
- glycan array binding signal (z-score) [24]: -0.796
- glycan array binding signal (z-score) [25]: 1.38
- glycan array binding signal (z-score) [26]: -0.446
- glycan array binding signal (z-score) [27]: -0.607
- glycan array binding signal (z-score) [28]: -0.195
- glycan array binding signal (z-score) [29]: 0.739
- glycan array binding signal (z-score) [30]: 0.28
- glycan array binding signal (z-score) [31]: -0.853
- glycan array binding signal (z-score) [32]: -0.504
- glycan array binding signal (z-score) [33]: -0.543
- glycan array binding signal (z-score) [34]: 1.27
- glycan array binding signal (z-score) [35]: 0.029
- glycan array binding signal (z-score) [36]: 0.703
- glycan array binding signal (z-score) [37]: 0.807
- glycan array binding signal (z-score) [38]: 1.11
- glycan array binding signal (z-score) [39]: -0.113
- glycan array binding signal (z-score) [40]: 0.624
- glycan array binding signal (z-score) [41]: -0.567
- glycan array binding signal (z-score) [42]: -0.687
- glycan array binding signal (z-score) [43]: -0.973
